Values of other authors, collected in publication PMC7527510, “Identification of the dog orthologue of human MAS-related G protein coupled receptor X2 (MRGPRX2) essential for drug-induced pseudo-allergic reactions” (Scientific Reports, 2020).

How the values were obtained:
[1] = tested on: dispersed canine skin mast cells; parameters: method as in PMID 10864147; conditions: cited from earlier work
[2] = tested on: dispersed mast cells of human skin; conditions: cited from earlier work

For `O=C(O)c1cn(C2CC2)c2cc(N3CCNCC3)c(F)cc2c1=O` [CPFX, ciprofloxacin], the “Concentration inducing histamine release from dispersed canine skin mast cells” value [1] is given as ≥ 10 µg/mL and the “Concentration required to induce histamine release from dispersed mast cells of human skin” value [2] is given as 200 µg/mL.
